Measured values published in the supplement of paper PMC10849652.
Some of the results follow.

The chains behind the UniProt entries cited, without tags or fusion partners. Where a name states a change or a piece, a line headed by the entry shows the natural chain unless it says otherwise.
UniProt Q86T23: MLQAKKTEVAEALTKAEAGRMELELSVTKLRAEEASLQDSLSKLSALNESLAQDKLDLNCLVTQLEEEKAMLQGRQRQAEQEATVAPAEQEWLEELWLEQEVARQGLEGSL
UniProt Q9UBT7: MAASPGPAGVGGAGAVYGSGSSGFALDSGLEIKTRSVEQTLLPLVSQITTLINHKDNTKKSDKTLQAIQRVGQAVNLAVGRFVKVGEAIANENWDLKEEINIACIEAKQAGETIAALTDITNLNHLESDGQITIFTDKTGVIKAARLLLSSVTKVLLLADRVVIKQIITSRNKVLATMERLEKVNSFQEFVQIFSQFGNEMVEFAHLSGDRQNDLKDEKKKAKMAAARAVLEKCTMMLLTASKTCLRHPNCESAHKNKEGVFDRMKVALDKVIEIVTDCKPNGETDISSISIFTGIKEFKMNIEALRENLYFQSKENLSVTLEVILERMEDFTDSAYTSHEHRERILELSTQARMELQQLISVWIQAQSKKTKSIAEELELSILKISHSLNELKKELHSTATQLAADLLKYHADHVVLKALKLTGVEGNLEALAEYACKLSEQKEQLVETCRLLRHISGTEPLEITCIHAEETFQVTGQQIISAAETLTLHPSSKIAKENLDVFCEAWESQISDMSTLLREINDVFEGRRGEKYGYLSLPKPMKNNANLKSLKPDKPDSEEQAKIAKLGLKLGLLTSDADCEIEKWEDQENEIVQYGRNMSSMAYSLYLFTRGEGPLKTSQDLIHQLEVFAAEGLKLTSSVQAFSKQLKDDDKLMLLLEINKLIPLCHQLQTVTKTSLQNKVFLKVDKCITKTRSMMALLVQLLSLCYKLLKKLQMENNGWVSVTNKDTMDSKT
UniProt Q96HD1: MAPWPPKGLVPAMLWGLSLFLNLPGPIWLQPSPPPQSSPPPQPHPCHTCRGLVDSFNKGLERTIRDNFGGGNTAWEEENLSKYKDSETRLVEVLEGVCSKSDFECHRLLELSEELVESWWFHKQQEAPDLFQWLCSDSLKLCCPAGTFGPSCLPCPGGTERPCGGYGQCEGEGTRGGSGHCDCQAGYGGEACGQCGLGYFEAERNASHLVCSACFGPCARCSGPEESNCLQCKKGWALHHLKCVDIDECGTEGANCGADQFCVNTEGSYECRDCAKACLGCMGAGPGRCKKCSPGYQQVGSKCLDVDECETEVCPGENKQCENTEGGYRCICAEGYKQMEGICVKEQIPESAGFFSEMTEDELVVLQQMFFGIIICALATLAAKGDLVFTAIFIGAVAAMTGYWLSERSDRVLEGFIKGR
UniProt Q2VPK5: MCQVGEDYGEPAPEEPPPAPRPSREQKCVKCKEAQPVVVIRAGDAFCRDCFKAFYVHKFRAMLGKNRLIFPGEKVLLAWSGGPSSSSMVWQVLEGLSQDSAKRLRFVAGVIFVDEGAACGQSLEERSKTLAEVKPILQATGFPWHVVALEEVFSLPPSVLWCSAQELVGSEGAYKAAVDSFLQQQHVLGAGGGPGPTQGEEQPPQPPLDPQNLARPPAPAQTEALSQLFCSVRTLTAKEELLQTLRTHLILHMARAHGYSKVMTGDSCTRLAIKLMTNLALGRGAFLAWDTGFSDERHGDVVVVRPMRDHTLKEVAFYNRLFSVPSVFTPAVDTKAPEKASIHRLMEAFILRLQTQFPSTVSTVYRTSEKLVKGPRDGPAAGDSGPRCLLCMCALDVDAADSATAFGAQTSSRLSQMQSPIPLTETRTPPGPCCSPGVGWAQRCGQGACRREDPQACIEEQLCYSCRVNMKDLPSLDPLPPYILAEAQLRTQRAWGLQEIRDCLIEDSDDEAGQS

Key:
Assay in all cases: log2 fold change, soluble protein after heating vs DMSO (PISA); higher = thermal stabilisation; K562 lysate, 10 uM; active = over 0.2 and 3.5 SD of the protein, either way, in both replicates (recomputed)
[1] = compound: CS(=O)(=O)CCNCc1ccc(-c2ccc3ncnc(Nc4ccc(OCc5cccc(F)c5)c(Cl)c4)c3c2)o1 [lapatinib]
In short: (§1)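 Dounce homogenisation of K562 pellets in PBS pH 7.4 with 1 mM MgCl2 produced a crude extract, used at 1 mg/mL protein. Exposure to 10 μM compound lasted 30 min, and aliquots were then heated for 3 min across 48°C-58°C, pooled and brought to 0.5% NP-40 at 4°C. The supernatant after 21,000xg for 90 min was quantified by TMTpro 16plex LC-MS/MS with channel sums equalised. Duplicate values are given as log-two fold change in thermal stability relative to solvent controls.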

[2] = compound: C[C@@H](Oc1cc(-c2cnn(C3CCNCC3)c2)cnc1N)c1c(Cl)ccc(F)c1Cl [crizotinib]
In short: as §1

[3] = compound: Cc1cc(Nc2cc(N3CCN(C)CC3)nc(Sc3ccc(NC(=O)C4CC4)cc3)n2)n[nH]1 [tozasertib]
In short: as §1

[4] = compound: Cc1ccc(-n2nc(C(C)(C)C)cc2NC(=O)Nc2ccc(OCCN3CCOCC3)c3ccccc23)cc1 [doramapimod]
In short: as §1

[5] = compound: Cc1cn(-c2cc(NC(=O)c3ccc(C)c(Nc4nccc(-c5cccnc5)n4)c3)cc(C(F)(F)F)c2)cn1 [nilotinib]
In short: as §1

[6] = compound: Cc1nc(Nc2n[nH]c3c2CN(C(=O)N[C@H](CN(C)C)c2ccccc2)C3(C)C)c2sccc2n1
In short: as §1

[7] = compound: Cc1ncc(-c2ccnc(Nc3ccc(S(C)(=O)=O)cc3)n2)n1C(C)C
In short: as §1

[8] = compound: Cn1cc(CNCC2CCN(c3ncc(C(=O)NO)cn3)CC2)c2ccccc21 [quisinostat]
In short: as §1

[9] = compound: Cn1cncc1[C@@](N)(c1ccc(Cl)cc1)c1ccc2c(c1)c(-c1cccc(Cl)c1)cc(=O)n2C [tipifarnib]
In short: as §1

[10] = compound: NC(=O)Nc1cc(-c2cccc(F)c2)sc1C(=O)N[C@H]1CCCNC1
In short: as §1

[11] = compound: NC(=O)c1cnc(N[C@@H]2CCCC[C@@H]2N)nc1Nc1cccc(-n2nccn2)c1
In short: as §1

[12] = compound: NC1(c2ccc(-c3nc4ccn5c(=O)[nH]nc5c4cc3-c3ccccc3)cc2)CCC1
In short: as §1

[13] = compound: C[C@H](C1=CC=C(C=C1)C(=O)NC2=C3C=CNC3=NC=C2)N
In short: as §1

[14] = compound: C[C@H](Nc1ncnc2nc[nH]c12)c1cc2cccc(Cl)c2c(=O)n1-c1ccccc1 [duvelisib]
In short: as §1

[15] = compound: Cc1cc(Nc2cc(CN3CCOCC3)c3nc(C)c(Cc4ccc(Cl)cc4F)n3n2)n[nH]1 [gandotinib]
In short: as §1

[16] = compound: Cc1cccc(CC(=O)N2CCc3c2ccc(-c2cn(C)c4ncnc(N)c24)c3F)n1
In short: as §1

[17] = compound: Cc1nc(Nc2ncc(C(=O)Nc3c(C)cccc3Cl)s2)cc(N2CCN(CCO)CC2)n1 [dasatinib]
In short: as §1

[18] = compound: Cn1cc(-c2ccc3c(c2)CCN3C(=O)Cc2cccc(C(F)(F)F)c2)c2c(N)ncnc21
In short: as §1

[19] = compound: CS(=O)(=O)N1CCN(Cc2cc3nc(-c4cccc5[nH]ncc45)nc(N4CCOCC4)c3s2)CC1 [pictilisib]
In short: as §1

[20] = compound: Cc1ccc(NC(=O)c2ccc(CN3CC[C@H](N(C)C)C3)c(C(F)(F)F)c2)cc1Nc1nccc(-c2cncnc2)n1 [bafetinib]
In short: as §1

Measured: log2 fold change

CROCCP2 (UniProt Q86T23)
inactive: [1] 0.118 | [2] 0.097 | [3] -0.141 | [4] -0.039 | [5] 0.146 | [6] -0.029 | [7] 0.063 | [8] -0.036 | [9] -0.111 | [10] 0.033 | [11] -0.118 | [12] 0.12

CTNNAL1 (UniProt Q9UBT7)
inactive: [1] -0.124 | [2] -0.102 | [13] -0.246 | [14] -0.152 | [15] 0.152 | [3] -0.02 | [4] 0.071 | [16] 0.269 | [5] -0.095 | [6] -0.079 | [17] -0.042 | [7] 0 | [18] -0.021 | [8] 0.059 | [9] 0.212 | [10] 0.012 | [11] 0.015 | [12] -0.064

CRELD1 isoform 2 (UniProt Q96HD1)
inactive: [1] -0.022 | [19] 0.008 | [13] -0.023 | [14] 0.031 | [15] 0.045 | [3] 0.048 | [20] -0.066 | [16] -0.029 | [5] -0.126 | [6] 0.019 | [17] -0.018 | [7] -0.136 | [18] -0.038 | [9] -0.008 | [11] 0.005 | [12] 0.006

CTU2 (UniProt Q2VPK5)
inactive: [1] 0.012 | [19] 0.007 | [2] 0.056 | [13] -0.013 | [14] -0.015 | [15] 0.013 | [3] 0.021 | [4] -0.009 | [20] 0.006 | [16] -0.009 | [5] 0.04 | [6] -0.018 | [17] 0.012 | [7] -0.024 | [18] 0.033 | [8] 0.112 | [9] 0.014 | [10] -0.003 | [11] 0.006 | [12] 0.074
